Literature values, collected in patent publication US9801876B2, “Complex granule formulation having improved stability comprising levocetirizine and montelukast” (HANMI PHARM. CO., LTD, priority 2013, dated 2017).
For at least one compound, name, drawing or mass did not settle the structure.

Conditions: in 0.1 M hydrochloric acid solution, sodium vapor lamp for 6 hours

CC(C)(O)c1ccccc1CC[C@@H](SCC1(CC(=O)O)CC1)c1cccc(/C=C/c2ccc3ccc(Cl)cc3n2)c1 [montelukast]
increase of the amount of montelukast cis-isomer: 14.6%
